Some of the results follow. Residues, ends and D or L forms follow the SMILES beside them. *: point of attachment. Cbz = O=C(OCc1ccccc1)*
Tests used:
Experiment in all cases: log2 fold change, soluble protein after heating vs DMSO (PISA); higher = thermal stabilisation; K562 cells, 10 uM, 30 min; active = over 0.2 and 3.5 SD of the protein, either way, in both replicates (recomputed)
[1] = compound: C#Cc1cccc(Nc2ncnc3cc(OCCOC)c(OCCOC)cc23)c1 [erlotinib]
Summary of the method: (§1)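 K562 cells at 2×10^6 cells/mL were exposed to 10 μM compound for 30 min, then aliquots were heated for 3 min across 48°C-58°C, pooled, and extracted in PBS containing 0.5% NP-40 at 4°C. The supernatant after 21,000xg for 90 min was taken as soluble protein and measured by TMTpro 16plex LC-MS/MS with channel sums equalised. Thermal stability is reported relative to control samples, with values from duplicates. Fold changes are given on a log2 scale.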

The chains behind the UniProt entries cited, without tags or fusion partners. Where a name states a change or a piece, a line headed by the entry shows the natural chain unless it says otherwise.
UniProt Q13838, whole entry, looked up: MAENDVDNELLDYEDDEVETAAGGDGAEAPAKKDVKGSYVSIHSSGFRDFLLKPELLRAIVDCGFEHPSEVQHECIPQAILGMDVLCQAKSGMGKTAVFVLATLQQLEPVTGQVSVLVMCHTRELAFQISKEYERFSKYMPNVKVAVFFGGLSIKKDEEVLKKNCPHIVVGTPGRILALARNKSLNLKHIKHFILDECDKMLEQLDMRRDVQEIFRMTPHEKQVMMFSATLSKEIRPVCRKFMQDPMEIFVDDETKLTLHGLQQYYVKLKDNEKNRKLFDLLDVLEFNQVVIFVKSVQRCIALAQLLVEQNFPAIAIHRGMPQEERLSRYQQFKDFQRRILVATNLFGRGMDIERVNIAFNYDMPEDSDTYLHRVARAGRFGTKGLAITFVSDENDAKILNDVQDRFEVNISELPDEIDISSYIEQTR
UniProt P17661, whole entry, looked up: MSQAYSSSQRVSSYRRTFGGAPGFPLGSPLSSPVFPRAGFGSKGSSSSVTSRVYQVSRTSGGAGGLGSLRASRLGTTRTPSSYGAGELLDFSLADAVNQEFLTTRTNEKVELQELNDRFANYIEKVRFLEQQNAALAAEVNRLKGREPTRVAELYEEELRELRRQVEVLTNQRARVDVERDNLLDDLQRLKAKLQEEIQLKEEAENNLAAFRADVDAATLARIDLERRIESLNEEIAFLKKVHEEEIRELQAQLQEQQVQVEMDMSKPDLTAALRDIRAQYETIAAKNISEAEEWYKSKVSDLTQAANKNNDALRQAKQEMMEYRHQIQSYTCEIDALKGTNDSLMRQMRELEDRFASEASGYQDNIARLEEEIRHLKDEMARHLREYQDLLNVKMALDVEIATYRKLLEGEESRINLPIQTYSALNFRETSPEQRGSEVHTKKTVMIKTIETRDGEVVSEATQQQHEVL
UniProt O75907: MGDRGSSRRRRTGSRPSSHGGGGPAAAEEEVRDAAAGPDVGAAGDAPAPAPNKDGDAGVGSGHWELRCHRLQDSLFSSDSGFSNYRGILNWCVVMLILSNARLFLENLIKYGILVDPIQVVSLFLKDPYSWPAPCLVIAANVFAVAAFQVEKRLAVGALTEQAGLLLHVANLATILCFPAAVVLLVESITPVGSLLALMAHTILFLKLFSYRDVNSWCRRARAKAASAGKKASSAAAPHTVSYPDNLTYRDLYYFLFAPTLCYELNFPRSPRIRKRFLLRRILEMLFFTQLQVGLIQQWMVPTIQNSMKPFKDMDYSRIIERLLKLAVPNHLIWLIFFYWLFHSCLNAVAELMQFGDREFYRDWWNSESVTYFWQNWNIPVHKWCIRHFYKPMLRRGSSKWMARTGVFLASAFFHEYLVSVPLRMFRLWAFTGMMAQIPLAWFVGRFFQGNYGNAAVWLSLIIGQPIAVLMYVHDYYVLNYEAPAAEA
UniProt Q9UNQ2: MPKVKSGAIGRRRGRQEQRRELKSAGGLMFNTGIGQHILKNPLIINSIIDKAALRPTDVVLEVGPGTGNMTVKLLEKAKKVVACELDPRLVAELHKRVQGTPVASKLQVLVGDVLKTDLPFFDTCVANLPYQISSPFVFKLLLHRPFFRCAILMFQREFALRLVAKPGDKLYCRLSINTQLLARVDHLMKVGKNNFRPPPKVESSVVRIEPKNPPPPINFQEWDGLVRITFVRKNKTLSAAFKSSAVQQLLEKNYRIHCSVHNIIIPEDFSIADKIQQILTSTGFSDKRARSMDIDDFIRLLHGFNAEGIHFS
UniProt Q13574: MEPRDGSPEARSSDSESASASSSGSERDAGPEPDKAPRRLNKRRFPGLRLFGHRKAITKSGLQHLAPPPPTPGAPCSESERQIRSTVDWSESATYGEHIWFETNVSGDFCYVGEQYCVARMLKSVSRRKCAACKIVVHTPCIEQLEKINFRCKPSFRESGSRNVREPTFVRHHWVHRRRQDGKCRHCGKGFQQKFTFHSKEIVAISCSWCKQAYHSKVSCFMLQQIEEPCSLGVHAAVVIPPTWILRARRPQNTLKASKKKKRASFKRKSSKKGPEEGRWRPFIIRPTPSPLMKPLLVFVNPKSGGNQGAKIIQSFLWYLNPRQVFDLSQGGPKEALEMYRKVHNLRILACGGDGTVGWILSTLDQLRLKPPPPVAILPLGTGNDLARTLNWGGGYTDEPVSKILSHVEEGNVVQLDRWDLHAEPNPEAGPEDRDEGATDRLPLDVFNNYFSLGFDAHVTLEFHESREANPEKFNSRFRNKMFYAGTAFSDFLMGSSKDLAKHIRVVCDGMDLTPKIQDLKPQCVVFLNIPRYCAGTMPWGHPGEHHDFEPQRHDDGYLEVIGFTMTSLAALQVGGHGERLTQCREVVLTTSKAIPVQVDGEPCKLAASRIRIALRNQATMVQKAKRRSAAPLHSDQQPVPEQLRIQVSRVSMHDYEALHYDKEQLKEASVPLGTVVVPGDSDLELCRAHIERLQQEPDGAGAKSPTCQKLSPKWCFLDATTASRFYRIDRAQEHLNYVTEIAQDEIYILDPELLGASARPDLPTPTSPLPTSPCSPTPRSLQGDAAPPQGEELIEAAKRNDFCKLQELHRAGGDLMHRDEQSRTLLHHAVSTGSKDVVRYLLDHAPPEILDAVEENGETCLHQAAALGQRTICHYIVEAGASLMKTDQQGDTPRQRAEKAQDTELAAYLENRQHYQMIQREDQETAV
UniProt Q15700, whole entry, looked up: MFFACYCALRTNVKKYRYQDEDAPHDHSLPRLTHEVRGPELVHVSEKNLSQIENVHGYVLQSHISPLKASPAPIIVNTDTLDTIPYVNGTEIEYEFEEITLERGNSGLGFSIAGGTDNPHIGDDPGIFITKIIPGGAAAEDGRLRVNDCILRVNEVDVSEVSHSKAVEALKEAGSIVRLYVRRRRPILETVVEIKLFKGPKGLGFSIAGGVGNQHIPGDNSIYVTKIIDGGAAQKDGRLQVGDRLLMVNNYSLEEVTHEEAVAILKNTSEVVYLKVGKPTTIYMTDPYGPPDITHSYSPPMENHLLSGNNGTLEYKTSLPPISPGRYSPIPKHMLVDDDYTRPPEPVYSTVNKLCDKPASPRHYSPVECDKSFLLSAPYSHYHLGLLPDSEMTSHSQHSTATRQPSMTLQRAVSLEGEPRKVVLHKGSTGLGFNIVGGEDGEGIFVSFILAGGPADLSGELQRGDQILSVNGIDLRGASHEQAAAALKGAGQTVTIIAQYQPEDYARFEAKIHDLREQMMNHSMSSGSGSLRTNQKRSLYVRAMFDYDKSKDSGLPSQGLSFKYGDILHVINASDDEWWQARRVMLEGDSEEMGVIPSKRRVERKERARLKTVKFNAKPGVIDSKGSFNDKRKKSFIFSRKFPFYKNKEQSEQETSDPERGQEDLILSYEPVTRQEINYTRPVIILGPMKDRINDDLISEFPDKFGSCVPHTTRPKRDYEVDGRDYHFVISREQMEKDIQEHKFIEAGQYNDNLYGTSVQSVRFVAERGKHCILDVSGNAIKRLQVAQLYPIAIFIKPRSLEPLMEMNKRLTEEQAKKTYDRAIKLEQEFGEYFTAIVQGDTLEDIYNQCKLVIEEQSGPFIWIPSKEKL
UniProt O43583: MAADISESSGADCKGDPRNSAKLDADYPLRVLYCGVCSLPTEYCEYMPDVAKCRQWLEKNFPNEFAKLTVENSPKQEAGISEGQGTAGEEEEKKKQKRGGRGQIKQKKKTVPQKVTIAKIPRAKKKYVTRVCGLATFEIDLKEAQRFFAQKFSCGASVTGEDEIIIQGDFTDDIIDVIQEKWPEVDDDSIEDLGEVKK
UniProt Q9Y2H0: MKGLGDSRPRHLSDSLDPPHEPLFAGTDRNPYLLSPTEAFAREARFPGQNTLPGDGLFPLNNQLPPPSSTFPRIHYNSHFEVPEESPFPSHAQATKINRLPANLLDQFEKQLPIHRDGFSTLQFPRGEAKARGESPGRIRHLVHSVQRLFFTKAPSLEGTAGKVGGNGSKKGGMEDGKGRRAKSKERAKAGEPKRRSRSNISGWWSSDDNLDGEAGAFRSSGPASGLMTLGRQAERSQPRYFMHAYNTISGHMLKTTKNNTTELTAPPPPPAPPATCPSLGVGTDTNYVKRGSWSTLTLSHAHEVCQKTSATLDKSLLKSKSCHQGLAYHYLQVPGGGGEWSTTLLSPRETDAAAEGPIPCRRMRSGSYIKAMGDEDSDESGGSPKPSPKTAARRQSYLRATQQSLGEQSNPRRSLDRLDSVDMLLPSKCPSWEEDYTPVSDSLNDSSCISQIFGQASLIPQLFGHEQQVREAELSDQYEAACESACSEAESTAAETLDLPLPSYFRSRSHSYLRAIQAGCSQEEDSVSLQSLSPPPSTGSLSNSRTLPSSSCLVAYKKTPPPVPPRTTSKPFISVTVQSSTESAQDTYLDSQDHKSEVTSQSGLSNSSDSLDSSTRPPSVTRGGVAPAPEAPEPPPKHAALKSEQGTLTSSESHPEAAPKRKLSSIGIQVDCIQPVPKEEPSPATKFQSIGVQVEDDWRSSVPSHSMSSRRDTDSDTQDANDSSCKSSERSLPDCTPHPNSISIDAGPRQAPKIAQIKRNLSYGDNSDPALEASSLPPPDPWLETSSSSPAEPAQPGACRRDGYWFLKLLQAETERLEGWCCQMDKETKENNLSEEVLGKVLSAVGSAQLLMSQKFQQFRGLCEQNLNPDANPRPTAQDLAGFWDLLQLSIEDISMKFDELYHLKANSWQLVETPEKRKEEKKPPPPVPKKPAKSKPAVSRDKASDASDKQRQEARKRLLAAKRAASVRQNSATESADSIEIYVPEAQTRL
UniProt Q7Z4W1: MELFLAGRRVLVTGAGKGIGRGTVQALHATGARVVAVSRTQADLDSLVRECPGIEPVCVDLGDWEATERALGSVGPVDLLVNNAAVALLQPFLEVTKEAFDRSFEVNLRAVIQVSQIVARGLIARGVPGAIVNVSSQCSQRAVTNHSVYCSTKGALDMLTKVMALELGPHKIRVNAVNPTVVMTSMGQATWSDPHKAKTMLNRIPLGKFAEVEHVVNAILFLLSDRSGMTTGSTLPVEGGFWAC
UniProt P39656: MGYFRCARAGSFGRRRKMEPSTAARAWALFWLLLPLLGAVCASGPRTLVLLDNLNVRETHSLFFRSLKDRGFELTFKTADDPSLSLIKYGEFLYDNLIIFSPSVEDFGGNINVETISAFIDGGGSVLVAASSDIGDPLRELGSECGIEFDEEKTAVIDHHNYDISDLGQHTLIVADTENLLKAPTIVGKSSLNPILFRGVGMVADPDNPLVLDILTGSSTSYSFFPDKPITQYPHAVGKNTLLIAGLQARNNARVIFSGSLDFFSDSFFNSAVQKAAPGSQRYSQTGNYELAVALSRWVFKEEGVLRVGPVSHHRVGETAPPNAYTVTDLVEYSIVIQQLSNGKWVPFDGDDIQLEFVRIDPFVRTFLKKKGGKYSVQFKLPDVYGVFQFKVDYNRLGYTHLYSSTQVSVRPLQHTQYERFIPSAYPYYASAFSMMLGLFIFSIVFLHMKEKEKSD
UniProt Q9Y2L1: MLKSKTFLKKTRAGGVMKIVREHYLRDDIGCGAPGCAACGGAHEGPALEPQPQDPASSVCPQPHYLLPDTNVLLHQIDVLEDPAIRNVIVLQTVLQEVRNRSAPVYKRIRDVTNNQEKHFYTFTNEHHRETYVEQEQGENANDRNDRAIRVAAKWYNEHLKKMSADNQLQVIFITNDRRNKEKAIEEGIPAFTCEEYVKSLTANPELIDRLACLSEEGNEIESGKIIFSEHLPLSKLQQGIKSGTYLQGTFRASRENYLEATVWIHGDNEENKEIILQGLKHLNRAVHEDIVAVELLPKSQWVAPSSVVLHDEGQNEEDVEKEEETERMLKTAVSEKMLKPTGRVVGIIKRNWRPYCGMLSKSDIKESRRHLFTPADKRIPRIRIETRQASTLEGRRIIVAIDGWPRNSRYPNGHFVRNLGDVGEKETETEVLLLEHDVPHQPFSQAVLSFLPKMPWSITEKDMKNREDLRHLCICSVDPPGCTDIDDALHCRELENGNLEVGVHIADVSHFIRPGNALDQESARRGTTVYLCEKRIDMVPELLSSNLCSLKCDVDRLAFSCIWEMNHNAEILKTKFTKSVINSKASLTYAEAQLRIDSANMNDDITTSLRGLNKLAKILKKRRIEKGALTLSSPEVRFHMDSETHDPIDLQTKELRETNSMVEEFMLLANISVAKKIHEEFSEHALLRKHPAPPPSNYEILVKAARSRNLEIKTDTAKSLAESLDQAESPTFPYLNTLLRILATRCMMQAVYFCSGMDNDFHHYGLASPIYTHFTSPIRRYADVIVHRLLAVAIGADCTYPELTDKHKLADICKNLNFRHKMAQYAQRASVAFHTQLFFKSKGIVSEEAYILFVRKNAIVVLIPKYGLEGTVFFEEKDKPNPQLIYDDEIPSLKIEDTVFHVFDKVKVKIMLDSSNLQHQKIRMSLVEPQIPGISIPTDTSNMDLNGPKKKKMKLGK

[2] = compound: C/C(=N\NC(=O)C1=CC(=CC=C1)S(=O)(=O)N2CCOCC2)/C3=C(C=CC(=C3)Cl)O
Summary of the method: as §1

[3] = compound: C1=CC(=C(C=C1Cl)C2=NC3=NC=CN=C3C(=N2)NC4=CC=NC=C4)F
Summary of the method: as §1

[4] = compound: C1=CC(=CC=C1C2=NC3=C(N2)C=C(C=C3)C(=O)N)OC4=CC=C(C=C4)Cl
Summary of the method: as §1

[5] = compound: C1=CC2=C(C=CC(=C2)/C=C\3/C(=O)NC(=NCC4=CC=CS4)S3)N=C1
Summary of the method: as §1

[6] = compound: C1=CC2=NC=CN=C2C=C1/C=C/3\C(=O)NC(=O)S3
Summary of the method: as §1

[7] = compound: C1=CC=C(C=C1)C2=NC(=C(N2)C3=CC=NC=C3)C4=CC(=C(C=C4)Cl)O
Summary of the method: as §1

[8] = compound: C1=CC=C2C(=C1)C3=NNC4=CC=CC(=C43)C2=O
Summary of the method: as §1

[9] = compound: C1CCN(C1)C(=O)NC2=CC=CC(=C2)NC3=NC=C(C(=N3)NCCC4=CN=CN4)Br
Summary of the method: as §1

[10] = compound: C1CN(CCC1(CC2=CC=C(C=C2)Cl)N)C3=NC=NC4=C3C=CN4
Summary of the method: as §1

[11] = compound: C1COCCN1CCN2C3=CC=CC=C3N=C2NC(=O)C4=CC(=CC=C4)[N+](=O)[O-] [IRAK-1-4 Inhibitor I]
Summary of the method: as §1

[12] = compound: C=CC(=O)N1CCC[C@@H](n2nc(-c3ccc(Oc4ccccc4)cc3)c3c(N)ncnc32)C1 [ibrutinib]
Summary of the method: as §1

[13] = compound: CC(=O)c1cnc2ccc(-c3cc(Cl)c(O)c(Cl)c3)nc2c1N[C@H]1CC[C@H](CN(C)C)CC1
Summary of the method: as §1

[14] = compound: CC(C)(C)Cn1c(N)nc2ccc(-c3[nH]c(C(C)(C)C)nc3-c3ccc(F)cc3)nc21 [ralimetinib]
Summary of the method: as §1

[15] = compound: CC(C)(O)CC(=O)NCCn1ccc2ncnc(Nc3ccc(Oc4cccc(C(F)(F)F)c4)c(Cl)c3)c21
Summary of the method: as §1

[16] = compound: CC(C)C1=C2N=C(C=C(N2N=C1)NCC3=CC=CC=C3)NCCCCCCN
Summary of the method: as §1

[17] = compound: CC(C)C[C@@H](C=O)NC(=O)[C@H](CC(C)C)NC(=O)[C@H](CC(C)C)NC(=O)OCc1ccccc1
Summary of the method: as §1

[18] = compound: CC(C)N(C[C@H]1O[C@@H](n2cnc3c(N)ncnc32)[C@H](O)[C@@H]1O)[C@H]1C[C@@H](CCc2nc3cc(C(C)(C)C)ccc3[nH]2)C1 [pinometostat]
Summary of the method: as §1

[19] = compound: CC1=C(C(CC(=O)N1)C2=CC=C(C=C2)C(F)(F)F)C(=O)NC3=C(C=C4C(=C3)C=NN4)F
Summary of the method: as §1

[20] = compound: CC1=C(C2=C(C=C1)C(=O)C3=CC=CC=C3N2CCCN)C
Summary of the method: as §1

Target | log2 fold change [1] | log2 fold change [2] | log2 fold change [3] | log2 fold change [4] | log2 fold change [5] | log2 fold change [6] | log2 fold change [7] | log2 fold change [8] | log2 fold change [9] | log2 fold change [10] | log2 fold change [11] | log2 fold change [12] | log2 fold change [13] | log2 fold change [14] | log2 fold change [15] | log2 fold change [16] | log2 fold change [17] | log2 fold change [18] | log2 fold change [19] | log2 fold change [20]
DDX39B isoform 2 (UniProt Q13838) | inactive: -0.078 | inactive: -0.008 | inactive: -0.065 | inactive: 0.004 | inactive: 0.006 | inactive: 0.014 | inactive: -0.04 | inactive: -0.037 | inactive: 0.01 | inactive: 0.017 | inactive: -0.036 | inactive: 0.01 | inactive: -0.007 | inactive: 0.009 | inactive: 0.089 | inactive: 0.083 | inactive: 0 | inactive: 0.017 | inactive: -0.028 | inactive: -0.02
DGUOK (UniProt Q16854) | inactive: -0.015 | inactive: -0.03 | inactive: 0.041 | inactive: 0.043 | inactive: 0.029 | inactive: 0.055 | inactive: -0.023 | inactive: -0.008 | inactive: 0.022 | inactive: 0.016 | inactive: 0.045 | inactive: -0.002 | inactive: -0.069 | inactive: -0.068 | inactive: -0.008 | inactive: 0.025 | inactive: -0.067 | inactive: -0.02 | inactive: -0.061 | inactive: 0.026
DES (UniProt P17661) | inactive: 0.085 | inactive: -0.259 | inactive: -0.174 | inactive: -0.095 | inactive: 0.069 | inactive: 0.039 | inactive: 0.048 | inactive: -0.052 | inactive: -0.035 | inactive: 0.117 | inactive: -0.094 | inactive: 0.136 | inactive: 0.012 | inactive: 0.196 | inactive: 0.347 | inactive: 0.037 | inactive: 0.033 | inactive: 0.112 | inactive: -0.005 | inactive: -0.039
DGAT1 (UniProt O75907) | inactive: -0.056 | inactive: 0.086 | inactive: -0.032 | inactive: 0.006 | inactive: 0.064 | inactive: 0.041 | inactive: 0.017 | inactive: -0.104 | inactive: -0.066 | inactive: 0.044 | inactive: -0.11 | inactive: -0.028 | inactive: -0.061 | inactive: -0.071 | inactive: 0.034 | inactive: 0.086 | inactive: -0.012 | inactive: -0.046 | inactive: -0.039 | inactive: 0.141
DLAT (UniProt P10515) | inactive: -0.182 | inactive: -0.183 | inactive: -0.309 | inactive: 0.045 | inactive: -0.106 | inactive: -0.078 | inactive: -0.022 | inactive: 0.078 | inactive: -0.009 | inactive: -0.186 | inactive: -0.144 | inactive: -0.096 | inactive: 0.157 | inactive: 0.102 | inactive: 0.03 | inactive: -0.051 | inactive: 0.022 | inactive: 0.176 | inactive: 0.064 | inactive: -0.019
DIMT1 (UniProt Q9UNQ2) | inactive: -0.169 | inactive: -0.063 | inactive: -0.374 | inactive: 0.049 | inactive: -0.037 | inactive: -0.009 | inactive: -0.022 | inactive: 0.037 | inactive: 0.026 | inactive: -0.136 | inactive: -0.153 | inactive: 0.001 | inactive: 0.178 | inactive: 0.125 | inactive: 0 | inactive: 0.061 | inactive: 0.094 | inactive: 0.275 | inactive: -0.044 | inactive: -0.416
DGKZ (UniProt Q13574) | inactive: -0.109 | inactive: 0 | inactive: 0 | inactive: 0.161 | inactive: 0.027 | inactive: 0.03 | inactive: -0.054 | inactive: 0.049 | inactive: 0.003 | inactive: -0.059 | inactive: -0.034 | inactive: 0.043 | inactive: -0.127 | inactive: 0.008 | inactive: -0.024 | inactive: 0.009 | inactive: 0.142 | inactive: 0.031 | inactive: -0.009 | inactive: 0.053
DLG2 isoform 2 (UniProt Q15700) | inactive: -0.026 | inactive: 0.094 | inactive: -0.031 | inactive: 0.008 | inactive: -0.032 | inactive: 0.116 | inactive: 0.005 | inactive: -0.079 | inactive: -0.021 | inactive: -0.001 | inactive: 0.007 | inactive: -0.045 | inactive: 0.013 | inactive: -0.026 | inactive: -0.047 | inactive: 0.005 | inactive: 0.013 | inactive: -0.06 | inactive: 0.173 | inactive: -0.017
DDA1 (UniProt Q9BW61) | inactive: -0.041 | inactive: 0.02 | inactive: 0.035 | inactive: 0.055 | inactive: 0.042 | inactive: 0.048 | inactive: -0.024 | inactive: -0.024 | inactive: 0.016 | inactive: 0.016 | inactive: 0.005 | inactive: -0.092 | inactive: -0.033 | inactive: -0.037 | inactive: -0.034 | inactive: 0.015 | inactive: 0.082 | inactive: -0.059 | inactive: 0.059 | inactive: 0.016
DENR (UniProt O43583) | inactive: 0.007 | inactive: 0.006 | inactive: 0.073 | inactive: 0.019 | inactive: -0.027 | inactive: 0.03 | inactive: -0.023 | inactive: -0.031 | inactive: -0.011 | inactive: 0.044 | inactive: 0.035 | inactive: -0.031 | inactive: 0 | inactive: -0.061 | inactive: 0.029 | inactive: 0.063 | inactive: -0.022 | inactive: -0.052 | inactive: 0.039 | inactive: -0.04
DLGAP4 (UniProt Q9Y2H0) | inactive: -0.005 | inactive: 0.035 | inactive: 0.021 | inactive: 0.017 | inactive: -0.01 | inactive: 0.016 | inactive: 0.053 | inactive: -0.023 | inactive: 0.063 | inactive: -0.01 | inactive: 0.033 | inactive: 0.03 | inactive: -0.023 | inactive: -0.003 | inactive: -0.022 | inactive: 0.028 | inactive: 0.031 | inactive: -0.041 | inactive: 0.024 | inactive: 0.018
DHRS3 (UniProt O75911) | inactive: 0.116 | inactive: 0.041 | inactive: 0.11 | inactive: 0.018 | inactive: 0.155 | inactive: -0.037 | inactive: 0.024 | inactive: 0.074 | inactive: 0.005 | inactive: 0.191 | inactive: 0 | inactive: 0.027 | inactive: -0.083 | inactive: 0.001 | inactive: 0.143 | inactive: 0.018 | inactive: -0.017 | inactive: -0.056 |  | inactive: 0.03
DCXR (UniProt Q7Z4W1) | inactive: -0.001 | inactive: 0.021 | inactive: 0.018 | inactive: -0.002 | inactive: 0.007 | inactive: 0.019 | inactive: -0.051 | inactive: 0.027 | inactive: 0.017 | inactive: 0.007 | inactive: 0.027 | inactive: 0.013 | inactive: 0 | inactive: -0.081 | inactive: 0.001 | inactive: 0.054 | inactive: -0.037 | inactive: -0.038 | inactive: 0.017 | inactive: -0.011
DDOST (UniProt P39656) | inactive: -0.033 | inactive: 0.003 | inactive: 0.004 | inactive: -0.014 | inactive: -0.085 | inactive: 0.014 | active: 0.253 | inactive: 0.012 | inactive: -0.002 | inactive: -0.003 | inactive: -0.038 | inactive: -0.027 | inactive: 0.057 | inactive: 0.156 | inactive: 0.015 | inactive: -0.081 | inactive: -0.036 | inactive: 0.015 |  | inactive: -0.041
DIS3 (UniProt Q9Y2L1) | inactive: 0.086 | inactive: 0.128 | inactive: 0.083 | inactive: -0.002 | inactive: 0.105 | inactive: 0.032 | inactive: 0.029 | inactive: 0.031 | inactive: -0.106 | inactive: -0.068 | inactive: -0.024 | inactive: -0.02 | inactive: -0.122 | inactive: 0.026 | inactive: -0.146 | inactive: -0.165 | inactive: -0.006 | inactive: -0.003 | inactive: 0.011 | inactive: 0.105
DENND4B (UniProt O75064) | inactive: -0.029 | inactive: 0.014 | inactive: -0.033 | inactive: -0.004 | inactive: 0.094 | inactive: -0.198 | inactive: -0.023 | inactive: 0.02 | inactive: -0.047 | inactive: 0.031 | inactive: 0.009 | inactive: 0.01 | inactive: -0.088 | inactive: 0.03 | inactive: -0.031 | inactive: -0.038 | inactive: 0.044 | inactive: 0.029 | inactive: 0.103 | inactive: 0.101

Record cards, from the list above. Values in the order: log2 fold change [1]	log2 fold change [2]	log2 fold change [3]	log2 fold change [4]	log2 fold change [5]	log2 fold change [6]	log2 fold change [7]	log2 fold change [8]	log2 fold change [9]	log2 fold change [10]	log2 fold change [11]	log2 fold change [12]	log2 fold change [13]	log2 fold change [14]	log2 fold change [15]	log2 fold change [16]	log2 fold change [17]	log2 fold change [18]	log2 fold change [19]	log2 fold change [20]
DLGAP4 (UniProt Q9Y2H0) as listed: inactive: -0.005	inactive: 0.035	inactive: 0.021	inactive: 0.017	inactive: -0.01	inactive: 0.016	inactive: 0.053	inactive: -0.023	inactive: 0.063	inactive: -0.01	inactive: 0.033	inactive: 0.03	inactive: -0.023	inactive: -0.003	inactive: -0.022	inactive: 0.028	inactive: 0.031	inactive: -0.041	inactive: 0.024	inactive: 0.018
DDA1 (UniProt Q9BW61) as listed: inactive: -0.041	inactive: 0.02	inactive: 0.035	inactive: 0.055	inactive: 0.042	inactive: 0.048	inactive: -0.024	inactive: -0.024	inactive: 0.016	inactive: 0.016	inactive: 0.005	inactive: -0.092	inactive: -0.033	inactive: -0.037	inactive: -0.034	inactive: 0.015	inactive: 0.082	inactive: -0.059	inactive: 0.059	inactive: 0.016
